Experiment [1] addresses Smarca4/Brg1 with the AT-hook deleted (ΔAT), HA-tagged (mouse (endogenous in mESCs)) (UniProt Q3TKT4). The experiment is described as follows: affinity purification with mass spectrometry; anti-HA agarose beads on nuclear extract of primed mESCs with HA-tagged Brg1 (WT or ΔAT), eluted with HA peptide; DIA mass spectrometry.
Experiment [2] deals with Smarca4/Brg1, wild type, HA-tagged (mouse (endogenous in mESCs)) (UniProt Q3TKT4). The description is as above.

By UniProt entry, the sequences of proteins in these tests, tags left out. Where a name states a change or a piece, a line headed by the entry shows the natural chain unless it says otherwise. Chains listed by the source or under a name are the forms on record and can include a tag or linker.
UniProt Q3TKT4: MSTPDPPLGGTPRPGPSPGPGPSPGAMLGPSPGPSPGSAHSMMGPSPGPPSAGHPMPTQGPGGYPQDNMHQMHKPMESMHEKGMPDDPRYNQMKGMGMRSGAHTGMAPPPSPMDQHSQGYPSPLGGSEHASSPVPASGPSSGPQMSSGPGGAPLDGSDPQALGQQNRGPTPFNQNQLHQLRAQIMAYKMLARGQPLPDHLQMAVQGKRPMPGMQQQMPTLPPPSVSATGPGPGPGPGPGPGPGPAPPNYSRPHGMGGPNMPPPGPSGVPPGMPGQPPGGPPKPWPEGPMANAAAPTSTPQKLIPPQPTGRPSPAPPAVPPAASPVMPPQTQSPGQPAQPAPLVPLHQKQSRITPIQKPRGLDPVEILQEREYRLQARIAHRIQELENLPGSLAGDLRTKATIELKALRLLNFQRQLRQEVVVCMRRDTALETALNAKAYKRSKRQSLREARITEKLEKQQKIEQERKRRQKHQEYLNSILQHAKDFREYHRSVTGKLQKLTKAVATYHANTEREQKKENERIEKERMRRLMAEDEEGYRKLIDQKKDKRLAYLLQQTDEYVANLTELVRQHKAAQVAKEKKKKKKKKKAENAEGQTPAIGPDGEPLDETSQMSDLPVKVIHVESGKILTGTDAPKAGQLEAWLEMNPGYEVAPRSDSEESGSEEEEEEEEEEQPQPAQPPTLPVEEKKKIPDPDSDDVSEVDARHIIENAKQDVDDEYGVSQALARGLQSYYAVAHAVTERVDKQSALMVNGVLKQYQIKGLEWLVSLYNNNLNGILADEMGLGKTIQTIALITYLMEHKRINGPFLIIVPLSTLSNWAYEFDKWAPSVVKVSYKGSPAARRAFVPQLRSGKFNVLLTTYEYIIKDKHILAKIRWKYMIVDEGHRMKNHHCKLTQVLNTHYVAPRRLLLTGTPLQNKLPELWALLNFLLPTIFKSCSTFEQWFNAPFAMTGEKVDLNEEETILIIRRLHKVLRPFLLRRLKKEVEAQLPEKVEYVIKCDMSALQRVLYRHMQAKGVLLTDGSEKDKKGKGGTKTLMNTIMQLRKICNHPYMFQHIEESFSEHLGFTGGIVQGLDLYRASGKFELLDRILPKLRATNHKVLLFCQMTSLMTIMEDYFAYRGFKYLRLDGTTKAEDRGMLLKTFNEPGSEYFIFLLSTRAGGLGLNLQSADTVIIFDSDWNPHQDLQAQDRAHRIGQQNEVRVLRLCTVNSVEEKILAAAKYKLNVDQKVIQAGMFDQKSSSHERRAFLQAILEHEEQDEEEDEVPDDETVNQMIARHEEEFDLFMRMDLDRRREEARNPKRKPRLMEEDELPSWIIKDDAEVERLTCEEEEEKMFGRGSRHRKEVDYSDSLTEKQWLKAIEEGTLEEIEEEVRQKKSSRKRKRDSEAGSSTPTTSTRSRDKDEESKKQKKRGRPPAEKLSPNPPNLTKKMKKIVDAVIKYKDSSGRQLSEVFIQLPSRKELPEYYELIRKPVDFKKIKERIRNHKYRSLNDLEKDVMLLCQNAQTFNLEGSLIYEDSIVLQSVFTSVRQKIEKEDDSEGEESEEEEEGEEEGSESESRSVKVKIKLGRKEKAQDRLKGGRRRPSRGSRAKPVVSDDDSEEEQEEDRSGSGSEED
Smarca4/Brg1 with the AT-hook deleted (ΔAT), HA-tagged (mouse (endogenous in mESCs)) (Q3TKT4, form named): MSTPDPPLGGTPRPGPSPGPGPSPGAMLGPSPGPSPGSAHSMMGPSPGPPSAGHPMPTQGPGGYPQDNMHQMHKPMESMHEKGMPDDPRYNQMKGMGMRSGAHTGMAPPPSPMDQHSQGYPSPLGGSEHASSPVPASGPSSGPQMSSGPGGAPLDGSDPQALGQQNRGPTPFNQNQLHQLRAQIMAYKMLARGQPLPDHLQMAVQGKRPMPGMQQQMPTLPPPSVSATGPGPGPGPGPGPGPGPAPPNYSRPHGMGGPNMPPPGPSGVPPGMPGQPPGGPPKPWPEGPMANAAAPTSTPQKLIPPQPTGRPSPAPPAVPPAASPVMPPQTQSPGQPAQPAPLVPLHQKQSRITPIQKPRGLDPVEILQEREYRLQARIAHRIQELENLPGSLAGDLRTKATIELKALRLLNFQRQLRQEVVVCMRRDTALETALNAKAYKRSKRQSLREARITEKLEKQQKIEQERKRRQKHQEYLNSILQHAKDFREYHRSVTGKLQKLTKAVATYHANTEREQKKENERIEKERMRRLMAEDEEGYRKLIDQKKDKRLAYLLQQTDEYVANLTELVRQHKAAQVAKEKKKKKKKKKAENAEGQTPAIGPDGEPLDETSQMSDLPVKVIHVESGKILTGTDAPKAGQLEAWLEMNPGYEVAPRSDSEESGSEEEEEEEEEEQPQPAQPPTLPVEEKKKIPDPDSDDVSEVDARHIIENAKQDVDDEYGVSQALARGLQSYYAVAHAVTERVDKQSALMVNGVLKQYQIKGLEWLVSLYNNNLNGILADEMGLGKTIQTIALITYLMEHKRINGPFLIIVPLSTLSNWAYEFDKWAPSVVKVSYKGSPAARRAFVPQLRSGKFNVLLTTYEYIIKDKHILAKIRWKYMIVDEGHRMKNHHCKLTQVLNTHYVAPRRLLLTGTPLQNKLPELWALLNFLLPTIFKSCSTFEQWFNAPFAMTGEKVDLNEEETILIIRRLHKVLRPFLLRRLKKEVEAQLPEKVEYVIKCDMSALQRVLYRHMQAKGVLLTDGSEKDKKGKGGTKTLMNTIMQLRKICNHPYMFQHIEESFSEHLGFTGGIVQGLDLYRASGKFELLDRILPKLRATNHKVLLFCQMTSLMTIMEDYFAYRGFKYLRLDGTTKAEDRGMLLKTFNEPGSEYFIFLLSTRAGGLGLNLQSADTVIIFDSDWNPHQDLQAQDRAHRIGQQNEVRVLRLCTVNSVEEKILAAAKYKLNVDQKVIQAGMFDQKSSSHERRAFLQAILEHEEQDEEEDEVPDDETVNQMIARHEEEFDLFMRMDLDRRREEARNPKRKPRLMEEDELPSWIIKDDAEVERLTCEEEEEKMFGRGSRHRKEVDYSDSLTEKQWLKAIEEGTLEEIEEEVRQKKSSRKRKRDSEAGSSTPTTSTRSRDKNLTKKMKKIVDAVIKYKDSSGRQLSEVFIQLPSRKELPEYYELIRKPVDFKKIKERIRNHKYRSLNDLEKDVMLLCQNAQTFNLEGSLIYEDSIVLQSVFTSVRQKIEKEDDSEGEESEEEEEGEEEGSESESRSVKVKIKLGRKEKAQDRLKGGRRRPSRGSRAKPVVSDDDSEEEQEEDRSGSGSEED
UniProt A2BH40: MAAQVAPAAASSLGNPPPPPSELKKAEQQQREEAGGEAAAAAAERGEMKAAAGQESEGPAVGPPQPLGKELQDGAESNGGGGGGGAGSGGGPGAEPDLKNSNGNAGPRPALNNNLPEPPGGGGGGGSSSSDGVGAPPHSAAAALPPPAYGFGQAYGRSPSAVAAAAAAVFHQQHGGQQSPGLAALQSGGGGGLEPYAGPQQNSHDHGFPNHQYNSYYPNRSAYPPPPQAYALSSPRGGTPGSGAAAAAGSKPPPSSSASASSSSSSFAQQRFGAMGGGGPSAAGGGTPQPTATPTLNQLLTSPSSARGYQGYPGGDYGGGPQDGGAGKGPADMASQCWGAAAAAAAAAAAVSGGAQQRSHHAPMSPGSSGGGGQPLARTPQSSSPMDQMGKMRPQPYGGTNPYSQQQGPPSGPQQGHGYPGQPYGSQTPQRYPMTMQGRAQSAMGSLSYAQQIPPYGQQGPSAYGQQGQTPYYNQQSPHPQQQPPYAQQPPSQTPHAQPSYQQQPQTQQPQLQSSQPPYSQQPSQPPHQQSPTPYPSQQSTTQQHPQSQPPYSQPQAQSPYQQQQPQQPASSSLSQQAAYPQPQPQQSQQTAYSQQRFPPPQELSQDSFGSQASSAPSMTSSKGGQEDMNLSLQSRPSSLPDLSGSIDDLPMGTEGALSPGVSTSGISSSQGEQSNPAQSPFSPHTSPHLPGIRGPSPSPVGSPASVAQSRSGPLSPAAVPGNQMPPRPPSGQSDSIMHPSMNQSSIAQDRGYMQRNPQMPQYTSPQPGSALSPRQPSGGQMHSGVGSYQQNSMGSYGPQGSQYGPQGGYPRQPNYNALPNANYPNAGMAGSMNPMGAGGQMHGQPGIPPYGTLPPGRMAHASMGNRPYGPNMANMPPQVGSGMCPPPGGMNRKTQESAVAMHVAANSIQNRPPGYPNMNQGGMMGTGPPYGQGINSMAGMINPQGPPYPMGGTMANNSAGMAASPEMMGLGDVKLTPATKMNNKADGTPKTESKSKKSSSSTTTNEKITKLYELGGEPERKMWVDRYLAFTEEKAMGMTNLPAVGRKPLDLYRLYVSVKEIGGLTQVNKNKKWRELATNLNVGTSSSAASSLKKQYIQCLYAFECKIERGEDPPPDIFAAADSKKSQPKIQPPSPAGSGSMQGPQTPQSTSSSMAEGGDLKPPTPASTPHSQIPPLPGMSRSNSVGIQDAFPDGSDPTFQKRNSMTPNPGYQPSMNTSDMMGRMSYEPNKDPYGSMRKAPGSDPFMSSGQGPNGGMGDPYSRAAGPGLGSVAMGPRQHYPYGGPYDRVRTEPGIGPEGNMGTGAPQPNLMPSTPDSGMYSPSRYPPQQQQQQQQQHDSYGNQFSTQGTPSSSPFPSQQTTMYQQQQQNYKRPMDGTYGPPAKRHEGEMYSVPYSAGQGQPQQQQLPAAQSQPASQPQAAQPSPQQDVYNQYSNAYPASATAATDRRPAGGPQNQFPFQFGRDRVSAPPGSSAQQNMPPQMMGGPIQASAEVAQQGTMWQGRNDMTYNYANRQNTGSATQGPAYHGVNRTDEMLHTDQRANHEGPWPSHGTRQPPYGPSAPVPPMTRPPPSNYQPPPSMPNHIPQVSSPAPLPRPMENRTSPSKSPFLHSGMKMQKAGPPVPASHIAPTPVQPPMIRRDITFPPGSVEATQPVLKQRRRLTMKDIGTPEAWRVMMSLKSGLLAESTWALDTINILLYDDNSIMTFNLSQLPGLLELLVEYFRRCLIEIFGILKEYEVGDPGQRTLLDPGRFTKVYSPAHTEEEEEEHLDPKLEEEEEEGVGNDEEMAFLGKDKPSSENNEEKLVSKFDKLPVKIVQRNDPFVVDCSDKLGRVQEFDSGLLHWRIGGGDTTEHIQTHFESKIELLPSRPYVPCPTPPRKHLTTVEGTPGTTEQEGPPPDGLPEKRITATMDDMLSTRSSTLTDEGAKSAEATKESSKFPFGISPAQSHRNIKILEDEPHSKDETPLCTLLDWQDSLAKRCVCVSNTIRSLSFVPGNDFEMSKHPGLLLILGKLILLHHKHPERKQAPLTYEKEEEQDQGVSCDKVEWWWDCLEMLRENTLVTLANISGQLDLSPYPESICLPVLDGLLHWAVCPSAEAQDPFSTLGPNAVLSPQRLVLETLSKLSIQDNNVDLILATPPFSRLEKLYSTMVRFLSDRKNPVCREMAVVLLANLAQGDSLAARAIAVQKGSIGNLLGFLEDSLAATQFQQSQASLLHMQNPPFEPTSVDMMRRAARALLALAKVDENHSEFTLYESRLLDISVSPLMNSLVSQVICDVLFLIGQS

No constants are given. Whether binding was seen depends on the method and setting. In cells and extracts the contact can be indirect. Here binding means that the protein was enriched with, or labelled near, the bait; the list need not be complete.

As to “Arid1a subunit of mouse SWI/SNF (from UniProt A2BH40 1-2283)”, the binding result in experiment [1] and in experiment [2] was “binds” in each case.

“Arid1b subunit of mouse SWI/SNF (from UniProt E9Q4N7 1-2306)”: the binding result in experiment [1] and in experiment [2] was “binds” throughout.

(Values after PMC10403523.)
